The values that follow come from PubChem BioAssay AID2685 (National Center for Advancing Translational Sciences (NCATS), 2010).

The nature of this test: qHTS Assay for Lipid Storage Modulators in Drosophila S3 Cells.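 On cell number change: cells counted by Cell Tracker Red CMTPX staining in the red channel.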 To be noted: BODIPY lipid droplet fluorescence, 18-24 h; for cell number change: measured here: cell count max response, cells fed with added oleic acid. The method in brief:
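Drosophila S3 cells loaded with oleic acid (400 uM, as added) and compounds at several concentrations; lipid droplets imaged by 488-nm laser-scanning cytometry, 500–530 nm intensity and object ratio to cell channel. Percent activity normalized to 20 uM Triacsin C.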
For orientation: In qHTS, concentration-response curves come from the screen itself.

[1] abbreviates: measured here: lipid fluorescence (Fed channel) AC50, cells fed with added oleic acid.
Where [2] appears, read: measured here: cell number channel AC50, cells fed with added oleic acid.

The list shows a part of the results. Shown are side measurements of this screen, not its main read-out; they come without a call. Compounds called inactive in the main read-out are mostly missing here. Potencies come from curve fits of mixed quality, noted in brackets.

As a reminder, the AC50 is the concentration at which the activity in the assay is half-maximal. A high value points to activity only at high concentration. `CCOC(=O)C1=C(C)N[C@@]2(O)c3ccccc3C(=O)[C@@]12O`: the cell number change is -13.5%. Under setting [1], the AC50 is 3.26 µM [falling, partial curve].

With `Cc1nc2c3cc(F)ccc3n(Cc3ccc(F)cc3)c2s1`, the cell number change stood at 21.6%. Moreover, the half-maximal activity concentration (AC50) under setting [1] is 4.11 µM [falling, single point].

`Cc1c(NC(=O)/C(=C/c2cccs2)c2cccs2)c(=O)n(-c2ccccc2)n1C`: the cell number change came out at 11.5%. The AC50 under setting [1] is 0.0731 µM [rising, full curve].

Consider `COCCn1c(=NC(=O)/C=C/c2cccs2)sc2cc(NC(C)=O)ccc21`, for which the cell number change was -22%. Under setting [1], the AC50 was 29.1 µM [falling, single point].

On to `CC(=O)Oc1ccc(C(=O)O)cc1OC(C)=O`, for which the cell number change is 4.05%. Also, the AC50 under setting [2] is 0.00461 µM [falling, full curve, poor fit]. Moreover, under setting [1], the AC50 is 2.91 µM [rising, single point].

Regarding `C=CCn1c(-c2ccccc2OC)n[nH]c1=S`, the cell number change is 37.6%. The concentration at half-maximal activity (AC50) under setting [1] was 29.1 µM [rising, single point].

Turning to `Cc1sc2nc3n(c(=O)c2c1C)Cc1ccccc1-3`, the cell number change was 23.8%. For the same compound, the AC50 under setting [2] is 2.31 µM [rising, full curve, poor fit]. Moreover, the AC50 under setting [1] is 3.26 µM [rising, partial curve].

Turning to `O=C(CC1NCCNC1=O)Nc1ccc2c(c1)OCCO2` (stereo not given), the cell number change was -88.5%. Moreover, under setting [2], the half-maximal activity concentration (AC50) was 29.1 µM [falling, single point]. Also, the AC50 under setting [1] was 4.11 µM [falling, partial curve].

Turning to `COc1ccc(NC(=O)/C(C#N)=C/c2ccc(-c3ccc(Cl)c(C(=O)O)c3)o2)cc1`, the cell number change was -11.6%.

For `N#Cc1ccc2c(c1)C[C@]1(c3ccsc3)Oc3c(c(=O)oc4ccccc34)C2O1`, the concentration at half-maximal activity (AC50) under setting [1] is 5.31 µM [rising, single point].

Turning to `COc1ccc(-n2c(-c3ccccc3)nc(=S)c3c2CCCC3)cc1`, the cell number change is -13.4%. For the same compound, the AC50 under setting [2] is 0.092 µM [falling, full curve, poor fit].

`CC(=O)N1CCN(C(=O)c2ccc(S(=O)(=O)Nc3cccc(C(F)(F)F)c3)cc2)CC1`: the cell number change is 33.2%. Moreover, the concentration at half-maximal activity (AC50) under setting [2] was 32.6 µM [rising, single point]. Further, the AC50 under setting [1] was 14.6 µM [rising, partial curve].

Regarding `O=C(CSc1nc2c(c(=O)[nH]1)CCC2)Nc1cccc(Cl)c1`, the cell number change turned out to be 7.21%. Further, the AC50 under setting [1] was 29.1 µM [rising, single point].

Take `COc1cc(C(=O)NCc2ccc(C)cc2)ccc1OC(F)F`: the cell number change was 33.2%. The half-maximal activity concentration (AC50) under setting [2] is 2.91 µM [rising, partial curve]. Moreover, the AC50 under setting [1] is 2.31 µM [rising, partial curve].

With `CC(C)(C)c1ccc(OCC(=O)NNC(=S)NC(=O)c2ccco2)c(Br)c1`, the cell number change was -0.431%. Also, under setting [1], the AC50 was 32.6 µM [rising, single point].

`Cn1c(COc2ccccc2)nnc1SCC(=O)Nc1ccc(N2CCOCC2)c(Cl)c1`: the cell number change was -51.9%. The concentration at half-maximal activity (AC50) under setting [2] is 5.17 µM [falling, full curve]. In addition, the AC50 under setting [1] was 4.61 µM [falling, partial curve].

`CCC(Oc1ccccc1)C(=O)Nc1cc(Cl)ccc1-n1cncn1` (stereo not given): the cell number change is -32.2%.

As for `O=C(COC(=O)/C=C/c1ccc2c(c1)OCO2)NCc1ccccc1`, the cell number change was -20.7%. In addition, the AC50 under setting [1] is 6.51 µM [falling, single point].

With `CCc1ccc(NC(=O)c2sc3nc(C)nc(N4CCN(c5ccccn5)CC4)c3c2C)cc1`, the cell number change turned out to be 2.7%. For the same compound, the AC50 under setting [1] was 0.231 µM [falling, full curve, poor fit].

As for `CCCNC(=O)c1ccccc1NC(=O)c1ccccc1SC`, the cell number change was found to be 15.6%.

Regarding `Cc1c(Cc2ccccc2)sc(/N=C/c2c(O)ccc3ccccc23)c1C(N)=O`, the cell number change is 55.7%. Further, the AC50 under setting [2] was 20.6 µM [rising, single point]. Moreover, under setting [1], the concentration at half-maximal activity (AC50) is 29.1 µM [falling, single point].

As for `C/C(=N\Nc1ccc(C(F)(F)F)cn1)c1ccncc1`, the cell number change is -15.1%.

On to `CS(=O)(=O)N(CC(=O)NCC1CCCO1)c1cc(Cl)ccc1Cl` (stereo not given), for which the cell number change is -3.61%. Besides, the AC50 under setting [1] was 2.59 µM [falling, full curve].

As for `CC(=O)NC(NC(=S)Nc1ccc(N=Nc2ccccc2)cc1)C(Cl)(Cl)Cl` (stereo not given), the cell number change was -2.64%. Further, the AC50 under setting [1] is 0.58 µM [falling, single point].

With `CC(=O)c1cccc(NC(=S)N2CCC(Cc3ccccc3)CC2)c1`, the cell number change was found to be 0.0795%.

With `COc1ccc(NC(=O)Nc2ccc(F)cc2F)c(C)c1`, the half-maximal activity concentration (AC50) runs as follows: under setting [2], 1.64 µM [rising, partial curve]; under setting [1], 2.06 µM [rising, partial curve].

For the compound `CC(CCc1ccccc1)NC(=O)CCCCCNc1nc(=S)[nH]c2ccccc12` (stereo not given), the cell number change came out at 16.5%. Further, the half-maximal activity concentration (AC50) under setting [2] was 0.146 µM [rising, full curve, poor fit]. Also, under setting [1], the half-maximal activity concentration (AC50) is 0.164 µM [rising, full curve, poor fit].

Take `COc1cccc(-n2nnc3c(=O)n(C/C=C/c4ccccc4)cnc32)c1`: the AC50 under setting [1] is 2.59 µM [rising, single point].

Take `CC(=O)Nc1ccc(Nc2c3ccccc3nc3ccccc23)cc1`: the cell number change is -27%. The AC50 under setting [2] is 3.26 µM [falling, single point].

As for `CCCCn1c(SCC(=O)Nc2oc(C)c3c(C)n[nH]c(=O)c23)nc2cc(S(N)(=O)=O)ccc21`, the cell number change stood at 51.7%. Besides, the half-maximal activity concentration (AC50) under setting [2] was 3.66 µM [rising, partial curve]. Besides, under setting [1], the half-maximal activity concentration (AC50) was 5.8 µM [rising, partial curve].

For the compound `Cn1c(=O)c2c(nc(-n3ccnc3)n2C)n(C)c1=O`, the concentration at half-maximal activity (AC50) under setting [2] is 6.51 µM [rising, single point].

For `CCOC(=O)c1ccc(S(=O)(=O)N2CCN(C(=O)c3cc4ccccc4o3)CC2)cc1`, the cell number change was -8.23%.

With `Cc1ccn(CCNC(=O)C2CCC(=O)N(CCc3ccc(Cl)cc3)C2)n1` (stereo not given), the cell number change is 11.1%.

On to `Cc1nc(SCC(=O)Nc2ccc(OCc3ccccc3)cc2)n[nH]1`, for which the cell number change is -9.95%. In addition, under setting [1], the half-maximal activity concentration (AC50) is 0.082 µM [rising, full curve, poor fit].

In the case of `O=C(OCN1C(=O)c2ccccc2C1=O)c1cccc(OC(F)F)c1`, the cell number change was determined as 19.7%. Besides, the AC50 under setting [1] is 0.326 µM [rising, single point].

In the case of `CCOC(=O)c1cn[nH]c1C(F)(F)F`, the cell number change is -9.4%. Moreover, the concentration at half-maximal activity (AC50) under setting [1] is 0.731 µM [falling, full curve].

For the compound `COc1cc2ncnc(NCc3cccs3)c2cc1OC`, the cell number change was -5.51%. Moreover, under setting [1], the half-maximal activity concentration (AC50) is 20.6 µM [falling, single point].

For `CC(=O)NCCC1CCN(C(=O)c2cc(COc3ccc(C)nc3)on2)CC1`, the cell number change is -9.92%. The concentration at half-maximal activity (AC50) under setting [1] was 29.1 µM [falling, single point].
